Values of other authors in patent publication US5756125A (G. D. Searle & Co., priority 1995, dated 1998).

Tests used:
[1] = background statement
[2] = tested on: gastrointestinal tract; details: background statement

Compound	rate of absorption [1]	irritancy to the gastrointestinal tract [2]
COc1ccc2cc([C@H](C)C(=O)O)ccc2c1 [Naproxen sodium]	comparatively faster rate of absorption	irritants to the gastrointestinal tract
COc1ccc2cc([C@H](C)C(=O)O)ccc2c1 [Naproxen, (S)-6-methoxy-α-methyl-2-naphthaleneacetic acid]	comparatively slow rate of absorption	irritants to the gastrointestinal tract
